Numbering of substitutions follows the chain as printed. Results are given in words; binding and its absence hold for the method and conditions named. In cells and extracts the contact can be indirect. Binding calls can cover weak binding; strength is not graded here. Tags and fused reporters may be left off the sequences shown.
What was measured:
Test in all cases: co-IP; GFP-WDR44 wild-type or variants transiently expressed in RPE1 WDR44 KO F4 cells for 48 h; GFP proteins immunoprecipitated from lysate, blots probed with GFP, RAB11 and VAPA antibodies
[1] = target: T1, GFP-tagged WDR44 D669N (human) (UniProt Q5JSH3)
T1 sequence: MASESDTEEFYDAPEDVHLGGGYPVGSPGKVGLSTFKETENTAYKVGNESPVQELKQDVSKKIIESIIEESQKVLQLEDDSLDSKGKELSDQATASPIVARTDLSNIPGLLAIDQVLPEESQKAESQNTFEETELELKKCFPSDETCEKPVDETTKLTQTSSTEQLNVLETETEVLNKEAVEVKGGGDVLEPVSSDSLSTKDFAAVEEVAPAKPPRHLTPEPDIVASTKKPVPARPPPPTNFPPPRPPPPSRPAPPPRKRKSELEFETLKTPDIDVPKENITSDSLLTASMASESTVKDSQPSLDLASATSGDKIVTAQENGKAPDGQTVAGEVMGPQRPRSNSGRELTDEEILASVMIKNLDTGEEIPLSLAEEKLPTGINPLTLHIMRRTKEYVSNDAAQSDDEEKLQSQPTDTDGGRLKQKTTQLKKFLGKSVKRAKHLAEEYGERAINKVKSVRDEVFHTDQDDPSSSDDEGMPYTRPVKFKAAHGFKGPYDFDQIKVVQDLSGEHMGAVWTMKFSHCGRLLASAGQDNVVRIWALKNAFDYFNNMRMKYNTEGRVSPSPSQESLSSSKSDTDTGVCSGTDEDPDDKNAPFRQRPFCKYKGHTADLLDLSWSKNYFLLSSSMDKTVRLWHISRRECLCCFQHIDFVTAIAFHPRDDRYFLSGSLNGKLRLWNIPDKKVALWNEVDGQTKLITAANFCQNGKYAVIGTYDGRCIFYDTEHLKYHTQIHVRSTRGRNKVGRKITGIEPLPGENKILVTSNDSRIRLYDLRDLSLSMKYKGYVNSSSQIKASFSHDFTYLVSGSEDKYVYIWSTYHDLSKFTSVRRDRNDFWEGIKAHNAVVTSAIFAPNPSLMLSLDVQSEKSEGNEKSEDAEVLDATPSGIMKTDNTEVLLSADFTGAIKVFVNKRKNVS

[2] = target: T2, GFP-tagged WDR44 D648G (human) (UniProt Q5JSH3)
T2 sequence: T1 sequence with D648G, N669D

[3] = target: T3, GFP-tagged WDR44 L668S (human) (UniProt Q5JSH3)
T3 sequence: T1 sequence with L668S, N669D

- binding [1]: binds
- binding [2]: binds
- binding [3]: binds
Substance: Endogenous RAB11
